Experimental data from patent US20220177558A1 (INSERM INSTITUT NATIONAL DE LA SANT ET DE LA RECHERCHE M …, published 2022).
No constants are given. Whether binding was seen depends on the method and setting. Some results given as binding are weak or reduced against the parent protein; the word gives no strength. Where no end group is shown, it is not given here.

Amino acid sequences for entries named in this document (tags omitted). A change or cut given only in a name is not applied to a line headed by its entry. Chains listed by the source or under a name are the forms on record and can include a tag or linker.
AcMet11-Tau (Met11-Tau) protein expressed in cells (P10636, form named): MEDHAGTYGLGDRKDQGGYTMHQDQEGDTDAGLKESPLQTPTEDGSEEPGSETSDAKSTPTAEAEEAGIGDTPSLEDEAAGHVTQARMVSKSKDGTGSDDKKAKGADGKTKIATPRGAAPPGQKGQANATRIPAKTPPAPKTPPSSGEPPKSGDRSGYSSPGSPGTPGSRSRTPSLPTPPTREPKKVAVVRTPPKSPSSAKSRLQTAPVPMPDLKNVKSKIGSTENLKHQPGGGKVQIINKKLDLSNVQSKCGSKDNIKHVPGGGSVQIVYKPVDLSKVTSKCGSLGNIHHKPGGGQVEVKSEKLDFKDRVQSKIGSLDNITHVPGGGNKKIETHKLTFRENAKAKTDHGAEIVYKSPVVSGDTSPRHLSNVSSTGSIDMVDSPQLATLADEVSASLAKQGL
AcMet11-Tau species in Alzheimer's disease brain (P10636, form named): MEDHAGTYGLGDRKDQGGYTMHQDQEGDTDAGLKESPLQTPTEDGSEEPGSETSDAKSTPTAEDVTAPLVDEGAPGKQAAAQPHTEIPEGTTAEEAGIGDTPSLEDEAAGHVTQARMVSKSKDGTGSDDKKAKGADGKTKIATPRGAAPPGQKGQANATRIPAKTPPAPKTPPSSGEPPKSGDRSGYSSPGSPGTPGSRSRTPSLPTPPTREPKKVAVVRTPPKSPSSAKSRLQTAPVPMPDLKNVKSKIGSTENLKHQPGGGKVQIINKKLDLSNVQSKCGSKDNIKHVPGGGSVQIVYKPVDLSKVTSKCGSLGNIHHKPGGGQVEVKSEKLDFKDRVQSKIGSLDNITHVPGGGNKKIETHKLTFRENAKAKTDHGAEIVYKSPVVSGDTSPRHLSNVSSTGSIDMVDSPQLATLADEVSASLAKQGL

Assays:
[1] = molecular target: AcMet11-Tau (Met11-Tau) protein expressed in cells (human) (UniProt P10636); test: Western blot of SH-SY5Y cell extracts
[2] = molecular target: AcMet11-Tau (Met11-Tau) protein expressed in cells (human) (UniProt P10636); test: Western blot of primary neurons infected with lentiviral vectors
[3] = molecular target: AcMet11-Tau species in Alzheimer's disease brain (human) (UniProt P10636); test: sandwich ELISA on sarkosyl fractions of AD parietal cortex

Measured: binding

B1: 2H2D11 antibody (antibody, IgG2a, V domains shown)
VH: EVRLVESGGGLVQPGGSLRLSCATSGFTFTDYYLSWVRQPPGKAFEWLGFIRNRADGYTTNYSASVKGRFTISRDNSQSILYLQMNTLRVEDSATYYCARDNDHYAMDYWGQGTSVTVSS
VL: DVVMTQTPLSLSVTIGQPASISCKSSQSLLYSNGKTYLNWLQQRPGQAPKHLMYQVSKLDPGIPDRFSGSGSETDFILKISRVEAEDLGIYYCLQGTYYPYTFGGGTKLEIK
notes: also called Mab 2H2D11; monoclonal antibody directed against AcMet11-Tau
binds: all assays above
